Reference: article PMC6316800

The chains behind the UniProt entries cited, without tags or fusion partners.
UniProt P03496: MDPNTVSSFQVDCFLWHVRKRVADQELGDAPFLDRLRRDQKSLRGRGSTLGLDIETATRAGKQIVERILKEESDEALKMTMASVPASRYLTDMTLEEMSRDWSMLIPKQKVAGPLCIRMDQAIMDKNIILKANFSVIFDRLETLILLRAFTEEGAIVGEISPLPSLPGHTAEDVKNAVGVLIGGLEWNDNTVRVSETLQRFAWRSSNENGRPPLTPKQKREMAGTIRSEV

B1: 60S ribosome subunit biogenesis protein NIP7 homolog (protein, UniProt Q9Y221 1-180)
chain: MRPLTEEETRVMFEKIAKYIGENLQLLVDRPDGTYCFRLHNDRVYYVSEKIMKLAANISGDKLVSLGTCFGKFTKTHKFRLHVTALDYLAPYAKYKVWIKPGAEQSFLYGNHVLKSGLGRITENTSQYQGVVVYSMADIPLGFGVAAKSTQDCRKVDPMAIVVFHQADIGEYVRHEETLT
B2: NF-kappa-B-repressing factor (protein, UniProt O15226 1-690)
chain: MEKILQMAEGIDIGEMPSYDLVLSKPSKGQKRHLSTCDGQNPPKKQAGSKFHARPRFEPVHFVASSSKDERQEDPYGPQTKEVNEQTHFASMPRDIYQDYTQDSFSIQDGNSQYCDSSGFILTKDQPVTANMYFDSGNPAPSTTSQQANSQSTPEPSPSQTFPESVVAEKQYFIEKLTATIWKNLSNPEMTSGSDKINYTYMLTRCIQACKTNPEYIYAPLKEIPPADIPKNKKLLTDGYACEVRCQNIYLTTGYAGSKNGSRDRATELAVKLLQKRIEVRVVRRKFKHTFGEDLVVCQIGMSSYEFPPALKPPEDLVVLGKDASGQPIFNASAKHWTNFVITENANDAIGILNNSASFNKMSIEYKYEMMPNRTWRCRVFLQDHCLAEGYGTKKTSKHAAADEALKILQKTQPTYPSVKSSQCHTGSSPRGSGKKKDIKDLVVYENSSNPVCTLNDTAQFNRMTVEYVYERMTGLRWKCKVILESEVIAEAVGVKKTVKYEAAGEAVKTLKKTQPTVINNLKKGAVEDVISRNEIQGRSAEEAYKQQIKEDNIGNQLLRKMGWTGGGLGKSGEGIREPISVKEQHKREGLGLDVERVNKIAKRDIEQIIRNYARSESHTDLTFSRELTNDERKQIHQIAQKYGLKSKSHGVGHDRYLVVGRKRRKEDLLDQLKQEGQVGHYELVMPQAN
B3: Nucleolar protein 11 (protein, UniProt Q9H8H0 1-719)
chain: MAALEEEFTLSSVVLSAGPEGLLGVEQSDKTDQFLVTDSGRTVILYKVSDQKPLGSWSVKQGQIITCPAVCNFQTGEYVVVHDNKVLRIWNNEDVNLDKVFKATLSAEVYRILSVQGTEPLVLFKEGAVRGLEALLADPQQKIETVISDEEVIKWTKFFVVFRHPVLIFITEKHGNYFAYVQMFNSRILTKYTLLLGQDENSVIKSFTASVDRKFISLMSLSSDGCIYETLIPIRPADPEKNQSLVKSLLLKAVVSGNARNGVALTALDQDHVAVLGSPLAASKECLSVWNIKFQTLQTSKELPQGTSGQLWYYGEHLFMLHGKSLTVIPYKCEVSSLAGALGKLKHSQDPGTHVVSHFVNWETPQGCGLGFQNSEQSRRILRRRKIEVSLQPEVPPSKQLLSTIMKDSEKHIEVEVRKFLALKQTPDFHTVIGDTVTGLLERCKAEPSFYPRNCLMQLIQTHVLSYSLCPDLMEIALKKKDVQLLQLCLQQFPDIPESVTCACLKIFLSIGDDSLQETDVNMESVFDYSINSVHDEKMEEQTEILQNGFNPEEDKCNNCDQELNKKPQDETKESTSCPVVQKRAALLNAILHSAYSETFLLPHLKDIPAQHITLFLKYLYFLYLKCSENATMTLPGIHPPTLNQIMDWICLLLDANFTVVVMMPEAKRLLINLYKLVKSQISVYSELNKIEVSFRELQKLNQEKNNRGLYSIEVLELF
B4: Nucleolar protein 6 (protein, UniProt Q9H6R4 1-1146)
chain: MGPAPAGEQLRGATGEPEVMEPALEGTGKEGKKASSRKRTLAEPPAKGLLQPVKLSRAELYKEPTNEELNRLRETEILFHSSLLRLQVEELLKEVRLSEKKKDRIDAFLREVNQRVVRVPSVPETELTDQAWLPAGVRVPLHQVPYAVKGCFRFLPPAQVTVVGSYLLGTCIRPDINVDVALTMPREILQDKDGLNQRYFRKRALYLAHLAHHLAQDPLFGSVCFSYTNGCHLKPSLLLRPRGKDERLVTVRLHPCPPPDFFRPCRLLPTKNNVRSAWYRGQSPAGDGSPEPPTPRYNTWVLQDTVLESHLQLLSTILSSAQGLKDGVALLKVWLRQRELDKGQGGFTGFLVSMLVVFLVSTRKIHTTMSGYQVLRSVLQFLATTDLTVNGISLCLSSDPSLPALADFHQAFSVVFLDSSGHLNLCADVTASTYHQVQHEARLSMMLLDSRADDGFHLLLMTPKPMIRAFDHVLHLRPLSRLQAACHRLKLWPELQDNGGDYVSAALGPLTTLLEQGLGARLNLLAHSRPPVPEWDISQDPPKHKDSGTLTLGLLLRPEGLTSVLELGPEADQPEAAKFRQFWGSRSELRRFQDGAIREAVVWEAASMSQKRLIPHQVVTHLLALHADIPETCVHYVGGPLDALIQGLKETSSTGEEALVAAVRCYDDLSRLLWGLEGLPLTVSAVQGAHPVLRYTEVFPPTPVRPAFSFYETLRERSSLLPRLDKPCPAYVEPMTVVCHLEGSGQWPQDAEAVQRVRAAFQLRLAELLTQQHGLQCRATATHTDVLKDGFVFRIRVAYQREPQILKEVQSPEGMISLRDTAASLRLERDTRQLPLLTSALHGLQQQHPAFSGVARLAKRWVRAQLLGEGFADESLDLVAAALFLHPEPFTPPSSPQVGFLRFLFLVSTFDWKNNPLFVNLNNELTVEEQVEIRSGFLAARAQLPVMVIVTPQDRKNSVWTQDGPSAQILQQLVVLAAEALPMLEKQLMDPRGPGDIRTVFRPPLDIYDVLIRLSPRHIPRHRQAVDSPAASFCRGLLSQPGPSSLMPVLGYDPPQLYLTQLREAFGDLALFFYDQHGGEVIGVLWKPTSFQPQPFKASSTKGRMVMSRGGELVMVPNVEAILEDFAVLGEGLVQTVEARSERWTV
B5: Nucleolar protein 7 (protein, UniProt Q9UMY1 1-257)
chain: MVQLRPRASRAPASAEAMVDEGQLASEEEEAEHGLLLGQPSSGAAAEPLEEDEEGDDEFDDEAPEELTFASAQAEAREEERRVRETVRRDKTLLKEKRKRREELFIEQKKRKLLPDTILEKLTTASQTNIKKSPGKVKEVNLQKKNEDCEKGNDSKKVKVQKVQSVSQNKSYLAVRLKDQDLRDSRQQAAQAFIHNSLYGPGTNRTTVNKFLSLANKRLPVKRAAVQFLNNAWGIQKKQNAKRFKRRWMVRKMKTKK
B6: Nucleolar protein 16 (protein, UniProt Q9Y3C1 1-178)
chain: MPKAKGKTRRQKFGYSVNRKRLNRNARRKAAPRIECSHIRHAWDHAKSVRQNLAEMGLAVDPNRAVPLRKRKVKAMEVDIEERPKELVRKPYVLNDLEAEASLPEKKGNTLSRDLIDYVRYMVENHGEDYKAMARDEKNYYQDTPKQIRSKINVYKRFYPAEWQDFLDSLQKRKMEVE
B7: Putative ribosomal RNA methyltransferase NOP2 (protein, UniProt P46087 1-812)
chain: MGRKLDPTKEKRGPGRKARKQKGAETELVRFLPAVSDENSKRLSSRARKRAAKRRLGSVEAPKTNKSPEAKPLPGKLPKGISAGAVQTAGKKGPQSLFNAPRGKKRPAPGSDEEEEEEDSEEDGMVNHGDLWGSEDDADTVDDYGADSNSEDEEEGEALLPIERAARKQKAREAAAGIQWSEEETEDEEEEKEVTPESGPPKVEEADGGLQINVDEEPFVLPPAGEMEQDAQAPDLQRVHKRIQDIVGILRDFGAQREEGRSRSEYLNRLKKDLAIYYSYGDFLLGKLMDLFPLSELVEFLEANEVPRPVTLRTNTLKTRRRDLAQALINRGVNLDPLGKWSKTGLVVYDSSVPIGATPEYLAGHYMLQGASSMLPVMALAPQEHERILDMCCAPGGKTSYMAQLMKNTGVILANDANAERLKSVVGNLHRLGVTNTIISHYDGRQFPKVVGGFDRVLLDAPCSGTGVISKDPAVKTNKDEKDILRCAHLQKELLLSAIDSVNATSKTGGYLVYCTCSITVEENEWVVDYALKKRNVRLVPTGLDFGQEGFTRFRERRFHPSLRSTRRFYPHTHNMDGFFIAKFKKFSNSIPQSQTGNSETATPTNVDLPQVIPKSENSSQPAKKAKGAAKTKQQLQKQQHPKKASFQKLNGISKGADSELSTVPSVTKTQASSSFQDSSQPAGKAEGIREPKVTGKLKQRSPKLQSSKKVAFLRQNAPPKGTDTQTPAVLSPSKTQATLKPKDHHQPLGRAKGVEKQQLPEQPFEKAAFQKQNDTPKGPQPPTVSPIRSSRPPPAKRKKSQSRGNSQLLLS

What follows are binders tested against Influenza A virus non-structural protein 1 (NS1), strain A/Puerto Rico/8/1934(H1N1) (Influenza A virus A/Puerto Rico/8/1934(H1N1)) (UniProt P03496) (assay: affinity purification with mass spectrometry).

Row | Binder | binding
1 | B1 | binds
2 | B2 | binds
3 | B3 | binds
4 | B4 | binds
5 | B5 | binds
6 | B6 | binds
7 | B7 | binds

These are yes or no findings as the source states them, for the method shown. In cells and extracts the contact can be indirect. A yes stands for co-enrichment or nearness to the bait. Other partners may have been found.
